Here are results for two molecules from publication PMC12781873.

Holding throughout (experiment): co-IP; yeast lysate in PBSKMT buffer (PBS pH 7.4, 3 mM KCl, 2.5 mM MgCl2, 0.5 % Triton X-100); lysate split in two, one portion with RNase A 200 μg/ml; GFP- or MYC-tagged protein precipitated on GFP- or MYC-conjugated beads, 5 h at 4°C; western blot; Mex67 with Lhp1 also in the lsm8-1 mutant
In general terms: A western blot detects proteins with antibodies after separation by electrophoresis.

The target of one experiment is T1, Lhp1–GFP (S. cerevisiae) (UniProt P33399).
T1 sequence: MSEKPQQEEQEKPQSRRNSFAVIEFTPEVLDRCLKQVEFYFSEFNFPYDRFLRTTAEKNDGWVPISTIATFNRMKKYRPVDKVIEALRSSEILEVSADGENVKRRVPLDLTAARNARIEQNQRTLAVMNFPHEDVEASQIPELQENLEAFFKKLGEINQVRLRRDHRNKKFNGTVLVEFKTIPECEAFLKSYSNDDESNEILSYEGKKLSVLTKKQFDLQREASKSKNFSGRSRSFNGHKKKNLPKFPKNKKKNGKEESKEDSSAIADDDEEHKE

Another experiment deals with T2, Prp24 (S. cerevisiae) (UniProt P49960).
T2 sequence: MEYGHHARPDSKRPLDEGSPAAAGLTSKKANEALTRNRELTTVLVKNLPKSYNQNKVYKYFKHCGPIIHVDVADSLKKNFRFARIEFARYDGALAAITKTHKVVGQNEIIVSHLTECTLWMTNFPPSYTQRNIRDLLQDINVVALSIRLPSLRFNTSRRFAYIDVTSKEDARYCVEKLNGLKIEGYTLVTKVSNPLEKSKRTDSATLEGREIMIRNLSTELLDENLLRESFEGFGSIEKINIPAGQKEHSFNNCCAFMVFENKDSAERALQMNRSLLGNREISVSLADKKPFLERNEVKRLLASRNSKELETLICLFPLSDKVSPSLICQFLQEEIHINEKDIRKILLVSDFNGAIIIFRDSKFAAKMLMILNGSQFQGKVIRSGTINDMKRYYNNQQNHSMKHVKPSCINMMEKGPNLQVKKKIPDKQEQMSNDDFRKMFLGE

Experiment [1] has as its target T3, Mtr10–GFP (S. cerevisiae) (UniProt Q99189).
T3 sequence: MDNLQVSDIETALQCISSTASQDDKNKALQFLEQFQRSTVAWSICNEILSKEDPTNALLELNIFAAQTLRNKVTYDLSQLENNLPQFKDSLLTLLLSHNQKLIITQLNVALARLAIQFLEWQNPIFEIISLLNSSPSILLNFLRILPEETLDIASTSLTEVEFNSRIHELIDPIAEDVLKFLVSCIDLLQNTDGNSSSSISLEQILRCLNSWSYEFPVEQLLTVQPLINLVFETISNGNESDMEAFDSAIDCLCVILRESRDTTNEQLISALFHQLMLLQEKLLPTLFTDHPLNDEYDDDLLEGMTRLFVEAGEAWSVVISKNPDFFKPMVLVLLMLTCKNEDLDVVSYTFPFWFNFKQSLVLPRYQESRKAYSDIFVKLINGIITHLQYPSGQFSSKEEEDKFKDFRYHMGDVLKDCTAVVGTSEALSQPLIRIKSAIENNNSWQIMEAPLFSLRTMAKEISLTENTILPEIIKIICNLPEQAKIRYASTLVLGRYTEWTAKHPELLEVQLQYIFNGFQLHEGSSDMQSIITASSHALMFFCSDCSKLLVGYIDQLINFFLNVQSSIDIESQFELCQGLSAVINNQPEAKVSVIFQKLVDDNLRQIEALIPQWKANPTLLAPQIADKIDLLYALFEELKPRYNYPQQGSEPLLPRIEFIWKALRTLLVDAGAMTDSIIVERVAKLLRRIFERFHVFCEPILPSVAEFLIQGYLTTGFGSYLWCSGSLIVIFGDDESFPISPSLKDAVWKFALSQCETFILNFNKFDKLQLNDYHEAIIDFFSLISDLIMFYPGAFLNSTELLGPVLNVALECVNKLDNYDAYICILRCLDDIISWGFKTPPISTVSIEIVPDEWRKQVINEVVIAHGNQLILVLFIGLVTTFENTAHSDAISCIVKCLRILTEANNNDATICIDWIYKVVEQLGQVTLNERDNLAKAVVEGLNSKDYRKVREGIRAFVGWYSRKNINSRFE

Another experiment concerns the target T4, Cse1–GFP (S. cerevisiae) (UniProt P33307).
T4 sequence: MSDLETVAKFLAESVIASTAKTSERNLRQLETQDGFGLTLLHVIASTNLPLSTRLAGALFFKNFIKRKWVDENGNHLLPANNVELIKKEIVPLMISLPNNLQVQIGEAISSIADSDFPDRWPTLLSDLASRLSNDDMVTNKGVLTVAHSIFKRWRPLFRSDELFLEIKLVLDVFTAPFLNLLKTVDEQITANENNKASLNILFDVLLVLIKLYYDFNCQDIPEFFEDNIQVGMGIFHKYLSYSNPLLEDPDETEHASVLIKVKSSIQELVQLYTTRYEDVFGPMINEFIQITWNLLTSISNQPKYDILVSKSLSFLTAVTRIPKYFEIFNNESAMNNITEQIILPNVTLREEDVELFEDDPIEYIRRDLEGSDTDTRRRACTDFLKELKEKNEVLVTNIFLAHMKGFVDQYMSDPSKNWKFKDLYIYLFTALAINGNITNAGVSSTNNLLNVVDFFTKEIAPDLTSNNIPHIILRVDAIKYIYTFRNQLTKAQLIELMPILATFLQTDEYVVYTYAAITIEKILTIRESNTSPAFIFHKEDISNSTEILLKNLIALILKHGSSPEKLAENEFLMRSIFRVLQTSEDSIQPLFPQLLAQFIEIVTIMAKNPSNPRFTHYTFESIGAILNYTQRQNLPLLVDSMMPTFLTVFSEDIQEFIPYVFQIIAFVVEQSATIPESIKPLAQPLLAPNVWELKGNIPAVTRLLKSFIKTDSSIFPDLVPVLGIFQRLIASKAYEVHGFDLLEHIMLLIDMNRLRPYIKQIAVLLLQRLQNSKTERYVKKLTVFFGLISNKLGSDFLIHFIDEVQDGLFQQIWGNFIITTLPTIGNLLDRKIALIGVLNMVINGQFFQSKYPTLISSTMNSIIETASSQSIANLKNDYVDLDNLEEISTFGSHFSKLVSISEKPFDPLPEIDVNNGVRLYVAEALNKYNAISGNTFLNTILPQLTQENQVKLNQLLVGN

Results are given in words; binding and its absence hold for the method and conditions named. In cells and extracts the contact can be indirect. Some results given as binding are weak or reduced against the parent protein; the word gives no strength. For some assays here: Where a sequence is shown, tags or fusion partners need not be part of it.

B1: export receptor heterodimer Mex67–Mtr2 (complex, UniProt Q99257 1-599; P34232 1-184)
chain 1: MSGFHNVGNINMMAQQQMQQNRIKISVRNWQNATMNDLINFISRNARVAVYDAHVEGPLVIGYVNSKAEAESLMKWNGVRFAGSNLKFELLDNNGASAGTSDTISFLRGVLLKRYDPQTKLLNLGALHSDPELIQKGVFSSISTQSKMFPAMMKLASTEKSLIVESVNLADNQLKDISAISTLAQTFPNLKNLCLANNQIFRFRSLEVWKNKFKDLRELLMTNNPITTDKLYRTEMLRLFPKLVVLDNVIVRDEQKLQTVYSLPMKIQQFFFENDALGQSSTDFATNFLNLWDNNREQLLNLYSPQSQFSVSVDSTIPPSTVTDSDQTPAFGYYMSSSRNISKVSSEKSIQQRLSIGQESINSIFKTLPKTKHHLQEQPNEYSMETISYPQINGFVITLHGFFEETGKPELESNKKTGKNNYQKNRRYNHGYNSTSNNKLSKKSFDRTWVIVPMNNSVIIASDLLTVRAYSTGAWKTASIAIAQPPQQQASVLPQVASMNPNITTPPQPQPSVVPGGMSIPGAPQGAMVMAPTLQLPPDVQSRLNPVQLELLNKLHLETKLNAEYTFMLAEQSNWNYEVAIKGFQSSMNGIPREAFVQF
chain 2: MNTNSNTMVMNDANQAQITATFTKKILAHLDDPDSNKLAQFVQLFNPNNCRIIFNATPFAQATVFLQMWQNQVVQTQHALTGVDYHAIPGSGTLICNVNCKVRFDESGRDKMGQDATVPIQPNNTGNRNRPNDMNKPRPLWGPYFGISLQLIIDDRIFRNDFNGVISGFNYNMVYKPEDSLLKI
As to B1, the binding result with Lhp1–GFP (S. cerevisiae) is on record as “binds”; with Prp24 (S. cerevisiae), “no binding”.

B2: Lsm8-myc (protein, UniProt P47093 1-109)
chain: MSATLKDYLNKRVVIIKVDGECLIASLNGFDKNTNLFITNVFNRISKEFICKAQLLRGSEIALVGLIDAENDDSLAPIDEKKVPMLKDTKNKIENEHVIWEKVYESKTK
As for B2, the binding result (in experiment [1]; in the experiment with Cse1–GFP (S. cerevisiae); with Lhp1–GFP (S. cerevisiae)) was “binds” each time.
